# Laboratory results taken from the supplement of paper PMC8728848.
# This is one part of the list.
# B1: GS7807I-bvu-563-22-563 (Bacteroides vulgatus) (protein)
# chain: IFSSCTDDFEKLNTSNIQVDPADLPFAAQCTEPMTYCYPPQQNMFQFWTNLTIDLYGGYFMTPNGNFTNGDMGENRGHSGGMYENYYLHIFNNTRRIIAQCDASGERGLSGVMRIVQAYGTLMTTDAYGPIPYSSILSGENEVYFEFDSQKDLYKAMLEDLSTAITDISAMGADEIAKLKSFDCWCNGDKDLWVKIANTMKLRMALRLSKRETEAGNAGMNLKAIATEAAQNTLATVNKDILIDKSLENEMWLMFNWGDCGFNANLVTIMSGTKDPRQPLYMTLNTGDIKNEAGTTTVAANSQYLGIRFASGLPAKPNSWGNFSGWIQGNNGSSYSMPLPIMKAAEAYFLLAEAKLRWDIGSESVKNLYENGIRVSMTNELAYRGAYAGIKEYPEGAVDAYINGTSTQIDYTDPIKAELSTPAVNKLSVKWDESASNEEKLERIITQKWLALFPLSTEGWAEQRRTGYPRFFPAFVNESNGAVNTEEGVRRVIYSSQAYDANAKGVEGGIKLLDEENSSKFGISGDKGGTHLWWDNADKGNF
# Experiments:
# Experiment in all cases: glycan array binding signal (z-score within array); higher = stronger binding
# Conditions in all cases: glycan notation: IUPAC condensed, linker removed
# [1] = target: Gal(a1-3)Gal(b1-4)GlcNAc(b1-2)Man
# Procedure, shortened: (§1)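 Glycan array data came from 3228 arrays in the Consortium for Functional Glycomics database, and only arrays with an available protein sequence were kept. Glycan names were put into IUPAC-condensed notation, and columns mapping to the same glycan were averaged. The binding signal is a within-array Z-score, averaged across arrays of one protein sequence run at different concentrations or buffers and across linkers. A negative Z-score can be read as non-binding.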
# [2] = target: Gal(a1-3)Gal(b1-4)GlcNAc(b1-2)Man(a1-3)[Gal(a1-3)Gal(b1-4)GlcNAc(b1-2)Man(a1-6)]Man(b1-4)GlcNAc(b1-4)GlcNAc
# Procedure, shortened: as §1
# [3] = target: Gal(a1-3)Gal(b1-4)GlcNAc(b1-3)GalNAc
# Procedure, shortened: as §1
# [4] = target: Gal(a1-3)Gal(b1-4)GlcNAc(b1-6)GalNAc
# Procedure, shortened: as §1
# [5] = target: Gal(a1-3)Gal(b1-4)[Fuc(a1-3)]GlcNAc
# Procedure, shortened: as §1
# [6] = target: Gal(a1-3)Gal(b1-4)[Fuc(a1-3)]GlcNAc(b1-2)Man(a1-3)[Gal(a1-3)Gal(b1-4)[Fuc(a1-3)]GlcNAc(b1-2)Man(a1-6)]Man(b1-4)GlcNAc(b1-4)GlcNAc
# Procedure, shortened: as §1
# Gal(a1-3)GalNAc = target: Gal(a1-3)GalNAc
# Procedure, shortened: as §1
# [7] = target: Gal(a1-3)[Gal(a1-4)]Gal(b1-4)GlcNAc
# Procedure, shortened: as §1
# [8] = target: Gal(a1-4)Gal(b1-3)GlcNAc(b1-2)Man(a1-3)[Gal(a1-4)Gal(b1-3)GlcNAc(b1-2)Man(a1-6)]Man(b1-4)GlcNAc(b1-4)GlcNAc
# Procedure, shortened: as §1
# Gal(a1-4)Gal(b1-4)Glc = target: Gal(a1-4)Gal(b1-4)Glc
# Procedure, shortened: as §1
# Gal(a1-4)Gal(b1-4)GlcNAc = target: Gal(a1-4)Gal(b1-4)GlcNAc
# Procedure, shortened: as §1
# [9] = target: Gal(a1-4)Gal(b1-4)GlcNAc(b1-2)Man(a1-3)[Gal(a1-4)Gal(b1-4)GlcNAc(b1-2)Man(a1-6)]Man(b1-4)GlcNAc(b1-4)GlcNAc
# Procedure, shortened: as §1
# [10] = target: Gal(a1-4)Gal(b1-4)GlcNAc(b1-3)Gal(b1-4)Glc
# Procedure, shortened: as §1
# Gal(a1-4)GlcNAc = target: Gal(a1-4)GlcNAc
# Procedure, shortened: as §1
# Gal(a1-6)Glc = target: Gal(a1-6)Glc
# Procedure, shortened: as §1
# Gal(b1-2)Gal = target: Gal(b1-2)Gal
# Procedure, shortened: as §1
# Gal(b1-3)Gal = target: Gal(b1-3)Gal
# Procedure, shortened: as §1
# Gal(b1-3)Gal(b1-4)GlcNAc = target: Gal(b1-3)Gal(b1-4)GlcNAc
# Procedure, shortened: as §1
# Gal(b1-3)GalNAc = target: Gal(b1-3)GalNAc
# Procedure, shortened: as §1
# [11] = target: Gal(b1-3)GalNAc(a1-3)[Fuc(a1-2)]Gal(b1-4)Glc
# Procedure, shortened: as §1
# [12] = target: Gal(b1-3)GalNAc(a1-3)[Fuc(a1-2)]Gal(b1-4)GlcNAc
# Procedure, shortened: as §1
# Gal(b1-3)GalNAc(b1-3)Gal = target: Gal(b1-3)GalNAc(b1-3)Gal
# Procedure, shortened: as §1
# [13] = target: Gal(b1-3)GalNAc(b1-3)Gal(a1-4)Gal(b1-4)Glc
# Procedure, shortened: as §1
# [14] = target: Gal(b1-3)GalNAc(b1-4)Gal(b1-4)Glc
# Procedure, shortened: as §1
# [15] = target: Gal(b1-3)GalNAc(b1-4)[Neu5Ac(a2-3)]Gal(b1-4)Glc
# Procedure, shortened: as §1
# Gal(b1-3)GlcNAc = target: Gal(b1-3)GlcNAc
# Procedure, shortened: as §1
# [16] = target: Gal(b1-3)GlcNAc(a1-3)Gal(b1-4)GlcNAc
# Procedure, shortened: as §1
# [17] = target: Gal(b1-3)GlcNAc(a1-6)Gal(b1-4)GlcNAc
# Procedure, shortened: as §1
# Gal(b1-3)GlcNAc(b1-2)Man = target: Gal(b1-3)GlcNAc(b1-2)Man
# Procedure, shortened: as §1
# [18] = target: Gal(b1-3)GlcNAc(b1-2)Man(a1-3)[Gal(b1-3)GlcNAc(b1-2)Man(a1-6)]Man(b1-4)GlcNAc(b1-4)GlcNAc
# Procedure, shortened: as §1
binder,measurement,setting,value
B1,glycan array binding signal (z-score),[1],-0.044
same,glycan array binding signal (z-score),[2],1.78
same,glycan array binding signal (z-score),[3],-1.06
same,glycan array binding signal (z-score),[4],0.309
same,glycan array binding signal (z-score),[5],-0.865
same,glycan array binding signal (z-score),[6],3.63
same,glycan array binding signal (z-score),Gal(a1-3)GalNAc,-0.028
same,glycan array binding signal (z-score),[7],0.09
same,glycan array binding signal (z-score),[8],-0.056
same,glycan array binding signal (z-score),Gal(a1-4)Gal(b1-4)Glc,-0.678
same,glycan array binding signal (z-score),Gal(a1-4)Gal(b1-4)GlcNAc,0.073
same,glycan array binding signal (z-score),[9],2.76
same,glycan array binding signal (z-score),[10],0.141
same,glycan array binding signal (z-score),Gal(a1-4)GlcNAc,-1.2
same,glycan array binding signal (z-score),Gal(a1-6)Glc,-0.496
same,glycan array binding signal (z-score),Gal(b1-2)Gal,1.6
same,glycan array binding signal (z-score),Gal(b1-3)Gal,-0.329
same,glycan array binding signal (z-score),Gal(b1-3)Gal(b1-4)GlcNAc,0.261
same,glycan array binding signal (z-score),Gal(b1-3)GalNAc,-0.504
same,glycan array binding signal (z-score),[11],0.951
same,glycan array binding signal (z-score),[12],-1.29
same,glycan array binding signal (z-score),Gal(b1-3)GalNAc(b1-3)Gal,-0.996
same,glycan array binding signal (z-score),[13],0.56
same,glycan array binding signal (z-score),[14],0.069
same,glycan array binding signal (z-score),[15],0.792
same,glycan array binding signal (z-score),Gal(b1-3)GlcNAc,-0.376
same,glycan array binding signal (z-score),[16],0.158
same,glycan array binding signal (z-score),[17],1.74
same,glycan array binding signal (z-score),Gal(b1-3)GlcNAc(b1-2)Man,-0.141
same,glycan array binding signal (z-score),[18],0.515

# Random excerpt: 2 records from the list.
binder,measurement,setting,value
B1,glycan array binding signal (z-score),Gal(b1-3)Gal(b1-4)GlcNAc,0.261
same,glycan array binding signal (z-score),[7],0.09
